Data as given in PubChem BioAssay AID248 (DTP/NCI, 2004).
The list shows only some results of the screen, not a fair sample: it gathers tests that were run many times, whatever their T/C, doses with no T/C, and many T/C values between a quarter and a half above the control. Other doses and runs of a compound stand elsewhere. T/C: endpoint of the treated group in % of that of the vehicle group. Some doses have a count of surviving animals in place of a T/C: the source holds a T/C of zero for them, seemingly a mark for toxic or unscored doses. Some doses without a T/C left all or most animals alive at the check, yet need not have been tolerated: survival well below the control is almost never listed, so the zero probably covers shortened survival too. Counts of survivors are from the toxicity check (mostly the fifth day) where no day follows; animals may have died later. Schedule codes are those of the source, read here as Q, the interval in days (D) or hours (H), X, the number of doses. Some entries were tested several times; their values stand side by side, smallest first. Some schedule codes hold Z or #, which are not explained here. Where survival is the endpoint, this PubChem deposit counts one and a half times the control or more as active, and values a quarter to a half above the control carry no call in these data; other NCI protocols may use other cut-offs. Some T/C values carry the count of animals alive at the toxicity check (mostly the fifth day); where none is given, no animal had died by that day. Additions like (4×) say how often a value occurs here.

Test system: L1210 leukemia ip in BDF1 mice, survival T/C
Assay: NCI In Vivo Anticancer Drug Screen. Data for tumor model L1210 Leukemia (intraperitoneal) in B6D2F1 (BDF1) mice
Conditions: T/C endpoint: mean survival time, higher T/C = longer survival
[1] = dose: 200.0 mg/kg/injection, schedule: Q01DX009 (ip), vehicle: saline with Tween-80
[2] = dose: 200.0 mg/kg/injection, schedule: Q01DX009 (ip), vehicle: Klucel (hydroxypropylcellulose) (HPC)
[3] = dose: 100.0 mg/kg/injection, schedule: Q01DX009 (ip), vehicle: saline with Tween-80
[4] = dose: 100.0 mg/kg/injection, schedule: Q01DX009 (ip), vehicle: saline
[5] = dose: 200.0 mg/kg/injection, schedule: Q01DX009 (ip), vehicle: saline
[6] = dose: 400.0 mg/kg/injection, schedule: Q01DX009 (ip), vehicle: saline
[7] = dose: 400.0 mg/kg/injection, schedule: Q04DX003 (ip), vehicle: saline with Tween-80
[8] = dose: 400.0 mg/kg/injection, schedule: Q04DX003 (ip), vehicle: Klucel (hydroxypropylcellulose) (HPC)
[9] = dose: 400.0 mg/kg/injection, schedule: Q01DX009 (ip), vehicle: saline with Tween-80

Structure (SMILES): CNC(=N)c1ccc(NC(=N)c2ccc(NC(=O)Nc3ccc(C(=N)Nc4ccc(C(=N)NC)cc4)cc3)cc2)cc1
- T/C (dose: 3.7 mg/kg/injection, schedule: Q01DX Z (ip), vehicle: carboxymethylcellulose (CMC)): 127 % of control
- survivor count (dose: 14.0 mg/kg/injection, schedule: Q01DX Z (ip), vehicle: water): 3 of 5
- survivor count (dose: 21.0 mg/kg/injection, schedule: Q01DX Z (ip), vehicle: water): 0 of 6
- T/C (dose: 28.0 mg/kg/injection, schedule: Q01DX Z (ip), vehicle: carboxymethylcellulose (CMC)): 127 % of control
- survivor count (dose: 28.0 mg/kg/injection, schedule: Q01DX Z (ip), vehicle: water): 0 of 6
- survivor count (dose: 36.0 mg/kg/injection, schedule: Q01DX Z (ip), vehicle: water): 0 of 6
- survivor count (dose: 42.0 mg/kg/injection, schedule: Q01DX Z (ip), vehicle: water): 0 of 6
- survivor count (dose: 63.0 mg/kg/injection, schedule: Q01DX Z (ip), vehicle: water): 0 of 6
- survivor count (dose: 95.0 mg/kg/injection, schedule: Q01DX Z (ip), vehicle: water): 0 of 6

Structure (SMILES): O=C(CCCCC(=O)N/N=C/c1ccncc1)N/N=C/c1ccncc1
- survivor count [1]: 6 of 6

Structure (SMILES): Cc1cc(CSC(=N)N)c(CSC(=N)N)cc1C
- survivor count (dose: 80.0 mg/kg/injection, schedule: Q01DX001 (ip), vehicle: saline): 0 of 6
- survivor count (dose: 100.0 mg/kg/injection, schedule: Q01DX001 (ip), vehicle: saline): 0 of 6
- survivor count (dose: 200.0 mg/kg/injection, schedule: Q01DX001 (ip), vehicle: saline): 0 of 6
- survivor count (dose: 400.0 mg/kg/injection, schedule: Q01DX001 (ip), vehicle: saline): 0 of 6

Structure (SMILES): ClCCCN1CCN(CCCCl)CC1
- survivor count (dose: 200.0 mg/kg/injection, schedule: Q01DX009 (ip), vehicle: distilled water + alcohol): 0 of 10

Structure (SMILES): CCCCCCCCCCCCCCCC[n+]1ccccc1
- survivor count (dose: 6.25 mg/kg/injection, schedule: Q01DX009 (ip), vehicle: saline): 0 of 6
- survivor count (dose: 12.5 mg/kg/injection, schedule: Q01DX009 (ip), vehicle: saline): 0 of 6
- survivor count (dose: 25.0 mg/kg/injection, schedule: Q01DX009 (ip), vehicle: saline): 0 of 6
- survivor count (dose: 25.0 mg/kg/injection, schedule: Q01DX Z (ip), vehicle: water): 0 of 6
- survivor count (dose: 50.0 mg/kg/injection, schedule: Q01DX Z (ip), vehicle: water): 0 of 6
- survivor count (dose: 100.0 mg/kg/injection, schedule: Q01DX Z (ip), vehicle: water): 0 of 6
- survivor count (dose: 200.0 mg/kg/injection, schedule: Q01DX Z (ip), vehicle: water): 0 of 6

Structure (SMILES): Nc1c(Cl)c(Cl)nc(C(=O)O)c1Cl
- survivor count (dose: 25.0 mg/kg/injection, schedule: Q01DX009 (ip), vehicle: Klucel (hydroxypropylcellulose) (HPC)): 0 of 6

Structure (SMILES): COc1ccc([N+](=O)[O-])cc1NC(=O)c1ccc(Cl)cc1
- survivor count (dose: 100.0 mg/kg/injection, schedule: Q01DX009 (ip), vehicle: Klucel (hydroxypropylcellulose) (HPC)): 6 of 6
- survivor count [2]: 6 of 6

Structure (SMILES): NC(=O)C1=C(CCCCl)c2ccccc2C1=O
- survivor count [3]: 4 of 6
- survivor count [1]: 2 of 6

Structure (SMILES): COc1cccc(/C=C(/SC)S(C)=O)c1OC (stereo unspecified)
- survivor count [4]: 0 of 6
- survivor count [5]: 0 of 6
- survivor count [6]: 4 of 6

Structure (SMILES): Cc1nccc2c(C)c3c(cc12)c1ccccc1n3CC1CO1 (stereo unspecified)
- T/C (dose: 9.37 mg/kg/injection, schedule: Q01DX009 (ip), vehicle: saline with Tween-80): 130 % of control
- T/C (dose: 75.0 mg/kg/injection, schedule: Q04DX003 (ip), vehicle: saline with Tween-80): 137 % of control
- survivor count (dose: 150.0 mg/kg/injection, schedule: Q01DX009 (ip), vehicle: saline with Tween-80): 8 of 10
- survivor count (dose: 300.0 mg/kg/injection, schedule: Q04DX003 (ip), vehicle: saline with Tween-80): 2 of 10

Structure (SMILES): O=C(C=C(C(F)(F)F)C(F)(F)F)c1cc(Cl)ccc1Cl
- survivor count (dose: 50.0 mg/kg/injection, schedule: Q01DX009 (ip), vehicle: saline with Tween-80): 5 of 6
- survivor count (dose: 100.0 mg/kg/injection, schedule: Q04DX003 (ip), vehicle: saline with Tween-80): 5 of 6
- survivor count (dose: 200.0 mg/kg/injection, schedule: Q04DX003 (ip), vehicle: saline with Tween-80): 0 of 6
- survivor count [7]: 0 of 6

Structure (SMILES): CCOC(=O)CN=NNc1ccc(C(=O)OCC)cc1
- survivor count (dose: 100.0 mg/kg/injection, schedule: Q01DX009 (ip), vehicle: other): 3 of 6
- survivor count (dose: 200.0 mg/kg/injection, schedule: Q04DX003 (ip), vehicle: other): 3 of 6
- survivor count (dose: 400.0 mg/kg/injection, schedule: Q01DX001 (ip), vehicle: other): 2 of 6

Structure (SMILES): C[N+](C)(C)CCCCCCCCCC[N+](C)(C)CCCCCCCCCC[N+](C)(C)CCCCCCCCCC[N+](C)(C)C
- survivor count (dose: 100.0 mg/kg/injection, schedule: Q04DX003 (ip), vehicle: Klucel (hydroxypropylcellulose) (HPC)): 0 of 6
- survivor count (dose: 200.0 mg/kg/injection, schedule: Q04DX003 (ip), vehicle: Klucel (hydroxypropylcellulose) (HPC)): 0 of 6
- survivor count [8]: 0 of 6

Structure (SMILES): Nc1nc2c(ncn2C2OC(COP(=O)(O)O)C(O)C2O)c(=O)[nH]1 (stereo unspecified)
- survivor count [6]: 6 of 6

Structure (SMILES): S=C(N/N=C\c1ccc2c(c1)OCO2)Nc1ccc2cn[nH]c2c1
- survivor count (dose: 400.0 mg/kg/injection, schedule: Q01DX001 (ip), vehicle: carboxymethylcellulose (CMC)): 1 of 4

Structure (SMILES): CCC(CC)N(C)C(C)(C)CO
- survivor count (dose: 400.0 mg/kg/injection, schedule: Q04DX003 (ip), vehicle: saline sonified): 1 of 6

Structure (SMILES): BrC1CCC2C(CCC(Br)C23OCCO3)C12OCCO2 (stereo unspecified)
- survivor count (dose: 200.0 mg/kg/injection, schedule: Q04DX003 (ip), vehicle: saline): 6 of 6

Structure (SMILES): CCNc1nc(Cl)nc(-c2cn(-c3ccccc3)c3ccccc23)n1
- survivor count [9]: 6 of 6

Structure (SMILES): O=C1C=Cc2cccc3cccc1c23
- survivor count [8]: 1 of 6

Structure (SMILES): O=C(CCCN1CCC2(CC1)OC(=O)N(c1ccccc1)C2=O)c1ccc(F)cc1
- survivor count [8]: 0 of 6

Structure (SMILES): CCOC(=O)C1CC1(C)Br (stereo unspecified)
- survivor count (dose: 12.5 mg/kg/injection, schedule: Q04DX002 (ip), vehicle: saline with Tween-80): 3 of 3
- survivor count (dose: 50.0 mg/kg/injection, schedule: Q04DX002 (ip), vehicle: saline with Tween-80): 3 of 3
- survivor count (dose: 200.0 mg/kg/injection, schedule: Q04DX002 (ip), vehicle: saline with Tween-80): 3 of 3

Structure (SMILES): CC(C)(Br)C(=O)c1ccco1
- survivor count [1]: 1 of 6
- survivor count [9]: 0 of 6

Structure (SMILES): CN(Cc1cnc2nc(N)nc(N)c2n1)c1ccc(C(=O)NC(CCC(=O)O)C(=O)O)cc1I (stereo unspecified)
- T/C (dose: 1.25 mg/kg/injection, schedule: Q01DX009 (ip), vehicle: sodium bicarbonate): 147 % of control

Structure (SMILES): COc1ccc(C(C)(C#N)Nc2ccccc2)cc1 (stereo unspecified)
- survivor count [7]: 3 of 6

Structure (SMILES): COc1ccc(/C=N/NC(=O)CCCCCCCCC(=O)N/N=C/c2ccc(OC)c(OC)c2)cc1OC
- T/C [3]: 103, 105 (2×), 106 % of control
- T/C [1]: 86, 97, 115 % of control [5 of 6 alive]
- survivor count [1]: 3 of 3
- survivor count (dose: 400.0 mg/kg/injection, schedule: Q01DX001 (ip), vehicle: saline with Tween-80): 1 of 3
- survivor count [9]: 1 of 6 and 1 of 3

Structure (SMILES): C=CC(COC(C)=O)N1CC1 (stereo unspecified)
- T/C (dose: 30.0 mg/kg/injection, schedule: Q01DX Z (oral), vehicle: saline): 128 % of control
- survivor count (dose: 50.0 mg/kg/injection, schedule: Q01DX Z (ip), vehicle: carboxymethylcellulose (CMC)): 1 of 6
- survivor count (dose: 60.0 mg/kg/injection, schedule: Q01DX Z (ip), vehicle: saline): 0 of 6
- survivor count (dose: 200.0 mg/kg/injection, schedule: Q01DX Z (ip), vehicle: carboxymethylcellulose (CMC)): 0 of 6

Structure (SMILES): C=C1CC[N+]2(CCCCCC)CCCC12 (stereo unspecified)
- survivor count (dose: 50.0 mg/kg/injection, schedule: Q01DX009 (ip), vehicle: saline): 3 of 3
- survivor count [4]: 0 of 3
- survivor count [5]: 0 of 3

Structure (SMILES): O=C(Nc1ccc(C(=O)O)cc1)Nc1ccccc1F
- survivor count [2]: 3 of 3
